Reference: patent US20220071978A1, “CANCER TREATMENT PHARMACEUTICAL COMPOSITION CONTAINING CDK INHIBITOR” (SUMITOMO DAINIPPON PHARMA CO., LTD., priority 2018, published 2022)

Legend:
AILNCaP15 cell line = experiment: Cell proliferation suppression test (crystal violet staining); assay type: cell-based; conditions: 336 h, two weeks culture
Protocol: (§1) 5×10^3 cells of the LNCaP cell line, 4×10^4 cells of the AILNCaP14 cell line, and 6×10^4 cells of the AILNCaP15 cell line were each seeded on a 24-well plate to which 1 mL/well of medium was dispensed. […] After culturing each cell line for an additional two weeks, the status of cell proliferation was measured by cell staining (Bommi-Reddy et al. Proc Natl Acad Sci USA. 105: 16484-16489 (2008)) using crystal violet.
(§2) The final concentrations of alvocidib were set to be 0.125, 0.25, 0.5, and 1.0 uM.

AILNCaP14 cell line = experiment: as above; assay type: cell-based; conditions: 336 h, two weeks culture
Protocol: as §1, §2

How did the IC50 (AILNCaP15 cell line) turn out when CNC(=O)c1ccc(N2C(=S)N(c3ccc(C#N)c(C(F)(F)F)c3)C(=O)C2(C)C)cc1F [enzalutamide] was run?
Its IC50 is over 5 µM.

What about the IC50 (AILNCaP14 cell line) of the same molecule?
The IC50 was over 5 µM.
